One series can be described thus: peptide synthesis. The conditions noted are these: whole synthesis.
Series [1] in a line: general procedure: solution-phase peptide synthesis; soluble polyalkylene glycol support (PEG, PPG); Boc-amino acid anhydrides. The following applies: whole synthesis.

With “Arg-Pro-Lys-Pro-Gln-Gln-Phe-Phe-Gly-Leu-Met”, the isolated yield entry in “peptide synthesis” is recorded as “about 35%”.
As to Leu-Ala-Gly-Val, the “crude purity (method not given)” value in series [1] (amino acid analysis) was 68%. For the same substance, the crude yield in series [1] (calculated on Val) is reported as 65%.

Values taken from US3960830 (dated 1976).
